According to patent US5118599A, “Yellow couplers for photographic elements and processes” (Eastman Kodak Company, priority 1991, dated 1992):

Experiment: Photographic single layer element: Dmax, Dmin, gamma and λmax after color development
Details: for γ: maximum slope between two adjacent density points
Experimental: Single layer photographic elements were prepared by coating a cellulose acetate-butyrate film support with a photosensitive layer containing a silver bromide emulsion at 70.2 and 140.4 mg/ft^2 for 2 and 4 equivalent couplers, respectively, gelatin at 350 mg/ft^2 and an image coupler (0.20 mmol/ft^2) dispersed in half its weight of dibutyl phthalate. The photosensitive layer was overcoated with a layer containing gelatin at 250 mg/ft^2 and bis vinylsulfonyl methyl ether hardener at 2.0 weight percent based on total gel.
Samples of each element were exposed imagewise through a stepped density test object and processed at 100° F. employing the following color developing solution, then stopped with a low pH bath, bleached, fixed, washed and dried to produce stepped colored images.
Color Developer Solution (2')
4-Amino-3-methyl-N-ethyl 3.55 g
Water to make 1 liter, pH 10.0
Densitometry in the appropriate color maximum density (Dmin and Dmax) and gamma defined as the maximum slope between any two adjacent density points.

[1] = Table 4, color developer pH 10.0

| SMILES | Dmax (Table 3, D99, pH 10.0, KS-2) | Dmin (Table 3, D99, pH 10.0, KS-2) | γ (Table 3, D99, pH 10.0, KS-2) | Dmax [1] | Dmin [1] | γ [1] |
| --- | --- | --- | --- | --- | --- | --- |
| CCCCCCCCCCCCCCCCS(=O)(=O)Nc1ccc(OC)c(NC(=O)CC(=O)C2(C)COC(C)(C)OC2)c1 [Coupler D-2] | 1.92 | 0.06 | 0.60 | – | – | – |
| CCC(C)(C)c1ccc(OCCCC(=O)Nc2ccc(OC)c(NC(=O)CC(=O)C3(C)COCOC3)c2)c(C(C)(C)CC)c1 [Coupler D-3] | – | – | – | 2.84 | 0.06 | 0.80 |
| CCCCCCCCCCCCCCCCS(=O)(=O)Nc1ccc(Cl)c(NC(=O)CC(=O)C2(C)COCOC2)c1 [Coupler D-4] | 2.95 | 0.06 | 1.10 | 2.95 | 0.06 | 1.10 |
| CCC(C)(C)c1ccc(OCCCC(=O)Nc2ccc(Cl)c(NC(=O)CC(=O)C3(C)COCOC3)c2)c(C(C)(C)CC)c1 [Coupler D-5] | 2.46 | 0.05 | 0.83 | 2.46 | 0.05 | 0.83 |
| CCC(C)(C)c1ccc(OCCCC(=O)Nc2ccc(OC)c(NC(=O)C(Oc3ccc(S(=O)(=O)c4ccc(O)cc4)cc3)C(=O)C3(C)COC(C)(C)OC3)c2)c(C(C)(C)CC)c1 [Coupler D-7] | – | – | – | 2.51 | 0.05 | 0.83 |
| CCOC1C(=O)N(C(C(=O)Nc2cc(NC(=O)CCCOc3ccc(C(C)(C)CC)cc3C(C)(C)CC)ccc2OC)C(=O)C2(C)COC(C)(C)OC2)C(=O)N1Cc1ccccc1 [Coupler D-8] | – | – | – | 2.18 | 0.06 | 0.80 |
| CCC(C)(C)c1ccc(OCCCC(=O)Nc2ccc(Cl)c(NC(=O)C(Oc3ccc(S(=O)(=O)c4ccc(O)cc4)cc3)C(=O)C3(C)COCOC3)c2)c(C(C)(C)CC)c1 [Coupler D-10] | – | – | – | 3.07 | 0.06 | 1.13 |
| CCC(C)(C)c1ccc(OCCCC(=O)Nc2cccc(NC(=O)C(Oc3ccc(S(=O)(=O)c4ccc(O)cc4)cc3)C(=O)C3(C)COCOC3)c2)c(C(C)(C)CC)c1 [Coupler D-12] | – | – | – | 2.51 | 0.06 | 0.90 |
| CCC(C)(C)c1ccc(OCCCC(=O)Nc2ccc(C)c(NC(=O)C(Oc3ccc(S(=O)(=O)c4ccc(O)cc4)cc3)C(=O)C3(C)COCOC3)c2)c(C(C)(C)CC)c1 [Coupler D-13] | – | – | – | 2.55 | 0.06 | 0.90 |
| CCC(C)(C)c1ccc(OCCCC(=O)Nc2ccc(OC)c(NC(=O)C(Oc3ccc(S(=O)(=O)c4ccc(O)cc4)cc3)C(=O)C3(C)COCOC3)c2)c(C(C)(C)CC)c1 [Coupler D-14] | – | – | – | 2.66 | 0.07 | 1.27 |
| CCCCCCCCCCCCCCCCS(=O)(=O)Nc1ccc(Cl)c(NC(=O)C(Oc2ccc(S(=O)(=O)c3ccc(OCc4ccccc4)cc3)cc2)C(=O)C(C)(C)C)c1 (stereo not drawn) [P-I, reference compound] | – | – | – | 2.52 | 0.06 | 0.77 |
| CCC(C)(C)c1ccc(OCCCC(=O)Nc2ccc(Cl)c(NC(=O)C(Oc3ccc(S(=O)(=O)c4ccc(OCc5ccccc5)cc4)cc3)C(=O)C(C)(C)C)c2)c(C(C)(C)CC)c1 (stereo not drawn) [P-III, reference compound] | – | – | – | 1.06 | 0.05 | 0.40 |
| CCCCCCCCCCCCCCCCS(=O)(=O)Nc1ccc(Cl)c(NC(=O)CC(=O)C(C)(C)C)c1 [P-V, reference compound] | 1.11 | 0.06 | 0.43 | 1.10 | 0.06 | 0.43 |
| CCC(C)(C)c1ccc(OCCCC(=O)Nc2ccc(Cl)c(NC(=O)CC(=O)C(C)(C)C)c2)c(C(C)(C)CC)c1 [P-VI, reference compound] | 0.25 | 0.05 | 0.10 | 0.25 | 0.05 | 0.10 |
